Laboratory results published in PMC4066752.
Results are given in words; binding and its absence hold for the method and conditions named. In cells and extracts the contact can be indirect. For some assays here: A result given as binding can be weak or reduced; the word gives no strength.

Amino acid sequences for entries named in this document (tags omitted). A change or cut given only in a name is not applied to a line headed by its entry.
UniProt P01106: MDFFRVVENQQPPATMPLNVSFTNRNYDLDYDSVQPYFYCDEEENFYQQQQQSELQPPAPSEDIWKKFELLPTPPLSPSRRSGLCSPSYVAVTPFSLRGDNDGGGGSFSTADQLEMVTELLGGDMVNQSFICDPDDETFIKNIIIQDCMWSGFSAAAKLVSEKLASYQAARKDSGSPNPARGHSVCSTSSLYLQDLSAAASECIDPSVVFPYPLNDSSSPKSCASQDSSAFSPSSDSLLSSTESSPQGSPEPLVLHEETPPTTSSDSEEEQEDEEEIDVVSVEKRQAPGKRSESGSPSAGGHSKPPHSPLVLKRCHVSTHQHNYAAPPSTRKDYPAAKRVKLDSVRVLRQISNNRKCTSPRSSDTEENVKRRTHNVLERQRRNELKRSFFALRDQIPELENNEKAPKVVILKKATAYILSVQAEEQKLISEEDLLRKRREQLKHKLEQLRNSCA
UniProt Q9UBL3: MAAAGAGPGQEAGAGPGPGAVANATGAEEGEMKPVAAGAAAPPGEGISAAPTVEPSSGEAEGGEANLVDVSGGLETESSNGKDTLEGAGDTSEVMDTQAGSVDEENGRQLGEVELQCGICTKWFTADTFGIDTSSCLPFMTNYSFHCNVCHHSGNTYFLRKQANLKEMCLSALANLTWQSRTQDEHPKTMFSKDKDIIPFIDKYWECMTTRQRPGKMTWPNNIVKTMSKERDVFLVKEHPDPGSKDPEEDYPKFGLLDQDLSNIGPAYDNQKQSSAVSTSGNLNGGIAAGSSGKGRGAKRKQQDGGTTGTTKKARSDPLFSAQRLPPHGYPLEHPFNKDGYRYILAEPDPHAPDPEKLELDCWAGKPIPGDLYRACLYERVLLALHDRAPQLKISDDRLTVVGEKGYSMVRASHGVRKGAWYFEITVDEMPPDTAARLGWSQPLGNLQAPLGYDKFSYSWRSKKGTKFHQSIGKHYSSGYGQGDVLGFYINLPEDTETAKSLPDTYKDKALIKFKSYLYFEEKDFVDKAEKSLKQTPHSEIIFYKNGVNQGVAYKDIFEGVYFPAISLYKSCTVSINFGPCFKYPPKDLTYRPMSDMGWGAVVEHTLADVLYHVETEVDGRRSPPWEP
UniProt Q15291: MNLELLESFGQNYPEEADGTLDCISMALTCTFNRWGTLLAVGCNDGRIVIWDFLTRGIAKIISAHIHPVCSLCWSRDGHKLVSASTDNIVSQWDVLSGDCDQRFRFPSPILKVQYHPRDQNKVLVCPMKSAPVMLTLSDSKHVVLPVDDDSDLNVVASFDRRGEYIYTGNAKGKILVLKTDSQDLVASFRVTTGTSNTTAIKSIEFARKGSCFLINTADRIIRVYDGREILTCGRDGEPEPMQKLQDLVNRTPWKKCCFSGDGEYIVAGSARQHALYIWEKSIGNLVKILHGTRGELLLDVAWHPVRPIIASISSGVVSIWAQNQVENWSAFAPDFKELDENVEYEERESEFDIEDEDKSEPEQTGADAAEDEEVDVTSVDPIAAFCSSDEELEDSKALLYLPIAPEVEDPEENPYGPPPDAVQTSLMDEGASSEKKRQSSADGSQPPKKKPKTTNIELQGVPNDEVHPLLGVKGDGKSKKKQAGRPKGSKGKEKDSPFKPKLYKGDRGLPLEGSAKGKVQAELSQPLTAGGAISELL

Key:
MYCΔ265-367 = MYCΔ265-367 (UniProt P01106); experiment: co-IP; HEK293 cells, transient expression of the respective MYC or ASH2L fragments; lysates; western blot
GST-MYC(263-439) = GST-MYC(263-439) (UniProt P01106); experiment: pull-down; pull-down of WDR5 and RbBP5 with MYC fragments (Supplementary Figure S3A); source of WDR5 and RbBP5 not told

binding (MYCΔ265-367)	binding (GST-MYC(263-439))	Substance
binds		ASH2L (in HEK293 lysates, partner of the MYC fragments) (from UniProt Q9UBL3 1-628)
	no binding	RbBP5 (pull-down of Supplementary Figure S3A) (from UniProt Q15291 1-538)
